# Measured data: PubChem BioAssay AID493246 (Drosophila RNAi Screening Center, 2011)
# Screen: 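Identify essential fly genes by loss of cell viability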 (primary screen)
# System: Drosophila Kc and S2R+ cells
# Reagent: long dsRNA against Drosophila genes
# Measurement: 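Raw, unnormalised count of remaining cells in each well; per-plate z-scores of cell number underlie the calls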
# Direction: Kc cell number and S2R+ cell number: higher = more cells remaining
# Call rule: 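Counted as a hit if cell number falls by a z-score of at least 3 within its plate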
# The deposit covers about 21,000 reagents; shown is a random part of those with a known target gene and a result. Of all reagents, 429 (2%) are marked active. 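Values are raw and not normalised between plates; calls rest on per-plate z-scores that were not deposited.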 Unmarked entries are inactive. The record does not give: the amount of reagent, the time to read-out.
Target gene,dsRNA,"Kc cell number, rep 1","Kc cell number, rep 2","S2R+ cell number, rep 1","S2R+ cell number, rep 2"
CG1371 (GeneID 36053),DRSC06409,1.30e6,1.35e6,1.16e6,1.18e6
Ets96B (GeneID 42952),DRSC16127,1.57e6,1.50e6,1.04e6,1.12e6
CG4017 (GeneID 34296),DRSC02733,1.55e6,1.60e6,1.23e6,1.42e6
inaD (GeneID 37629),DRSC04694,1.65e6,1.71e6,1.29e6,1.38e6
Gr94a (GeneID 117339),DRSC13597,1.57e6,1.53e6,1.08e6,1.24e6
CG4325 (GeneID 31167),DRSC18516,9.00e5 (active),1.07e6,6.46e5,7.42e5
Prtl99C (GeneID 43526),DRSC15049,1.38e6,1.43e6,1.07e6,1.11e6
glob1 (GeneID 41930),DRSC16959,1.64e6,1.68e6,1.25e6,1.33e6
Got2 (GeneID 33373),DRSC00643,1.28e6,1.34e6,9.13e5,9.66e5
CG33223 (GeneID 2768867),DRSC17572,1.38e6,1.56e6,1.04e6,1.06e6
CG11970 (GeneID 41072),DRSC14157,1.83e6,1.95e6,1.55e6,1.53e6
CG15278 (GeneID 34865),DRSC02481,1.51e6,1.54e6,1.30e6,1.45e6
Taf11 (GeneID 34293),DRSC03448,1.58e6,1.61e6,1.24e6,1.41e6
Shc (GeneID 44052),DRSC11284,1.48e6,1.46e6,1.26e6,1.40e6
CG42709 (GeneID 39453),DRSC10277,1.44e6,1.48e6,1.36e6,1.32e6
Rtf1 (GeneID 37554),DRSC04085,1.46e6,1.60e6,9.09e5,9.30e5
UK114 (GeneID 34897),DRSC01973,1.51e6,1.60e6,1.21e6,1.34e6
CG14478 (GeneID 36964),DRSC06450,1.44e6,1.53e6,1.14e6,1.26e6
Gpdh1 (GeneID 33824),DRSC03336,1.26e6,1.36e6,7.24e5,8.37e5
Bhmt (GeneID 35153),DRSC02079,1.48e6,1.55e6,1.20e6,3.14e5
Mon1 (GeneID 33689),DRSC00336,1.68e6,1.59e6,1.14e6,1.33e6
CG43896 (GeneID 39360),DRSC10754,1.35e6,1.37e6,1.41e6,1.54e6
CG3065 (GeneID 37818),DRSC04333,1.31e6,1.36e6,9.36e5,1.04e6
CG5567 (GeneID 39986),DRSC10517,1.43e6,1.46e6,1.29e6,1.28e6
Rme-8 (GeneID 35939),DRSC07054,1.39e6,1.53e6,1.02e6,1.02e6
Pvf2 (GeneID 33994),DRSC02283,1.51e6,1.55e6,1.20e6,1.31e6
a6 (GeneID 31127),DRSC18733,4.95e5,,7.46e5,
CG14767 (GeneID 50250),DRSC06500,1.55e6,1.58e6,1.13e6,1.18e6
sle (GeneID 41262),DRSC14557,1.54e6,1.61e6,1.27e6,1.42e6

Continued (6 carried over from the part before).
Target gene,dsRNA,"Kc cell number, rep 1","Kc cell number, rep 2","S2R+ cell number, rep 1","S2R+ cell number, rep 2"
CG5567 (GeneID 39986),DRSC10517,1.43e6,1.46e6,1.29e6,1.28e6
Rme-8 (GeneID 35939),DRSC07054,1.39e6,1.53e6,1.02e6,1.02e6
Pvf2 (GeneID 33994),DRSC02283,1.51e6,1.55e6,1.20e6,1.31e6
a6 (GeneID 31127),DRSC18733,4.95e5,,7.46e5,
CG14767 (GeneID 50250),DRSC06500,1.55e6,1.58e6,1.13e6,1.18e6
sle (GeneID 41262),DRSC14557,1.54e6,1.61e6,1.27e6,1.42e6
CG31337 (GeneID 318688),DRSC12981,1.37e6,1.60e6,1.02e6,1.18e6
CG10026 (GeneID 35226),DRSC02010,1.87e6,1.99e6,1.32e6,2.74e5
Su(var)2-HP2 (GeneID 36621),DRSC06204,1.41e6,1.45e6,1.21e6,1.32e6
CG13590 (GeneID 37907),DRSC04226,1.77e6,1.84e6,1.26e6,1.33e6
Taf2 (GeneID 39164),DRSC11298,1.36e6,1.39e6,1.21e6,8.91e5
CG3199 (GeneID 41725),DRSC15467,1.53e6,1.46e6,1.05e6,1.18e6
CG14232 (GeneID 32983),DRSC19588,1.57e6,1.68e6,1.04e6,1.13e6
CG14695 (GeneID 41314),DRSC14918,1.75e6,1.77e6,1.27e6,1.37e6
CG15185 (GeneID 40798),DRSC12565,1.48e6,1.61e6,1.19e6,1.23e6
CG4238 (GeneID 33377),DRSC00090,1.55e6,1.57e6,1.11e6,1.30e6
CG4238 (GeneID 33377),DRSC00644,1.67e6,1.75e6,1.03e6,1.21e6
Rap2l (GeneID 37850),DRSC04646,1.72e6,1.84e6,1.23e6,1.34e6
CSN1a (GeneID 34857),DRSC01951,1.52e6,1.62e6,1.20e6,1.32e6
SPH93 (GeneID 35049),DRSC02978,1.67e6,1.68e6,1.41e6,1.54e6
CG7139 (GeneID 40448),DRSC11611,1.48e6,1.53e6,1.18e6,1.27e6
CG12496 (GeneID 31226),DRSC18602,1.49e6,1.54e6,9.99e5,1.10e6
Zcchc7 (GeneID 39883),DRSC11099,1.43e6,1.48e6,1.14e6,1.13e6
halo (GeneID 33334),DRSC00705,1.64e6,1.66e6,1.08e6,1.26e6
mbc (GeneID 42817),DRSC16995,1.63e6,1.59e6,9.56e5,1.10e6
Tsr1 (GeneID 40360),DRSC11821,1.30e6,1.43e6,1.23e6,1.33e6
CG17801 (GeneID 42144),DRSC15273,1.46e6,1.46e6,1.06e6,1.18e6
Atac1 (GeneID 33977),DRSC03155,1.78e6,1.76e6,1.14e6,1.25e6
CG10996 (GeneID 32345),DRSC19363,1.56e6,1.63e6,1.07e6,1.11e6
mRpL55 (GeneID 42290),DRSC14764,1.56e6,1.48e6,9.11e5,1.07e6
Lip1 (GeneID 43973),DRSC03364,1.56e6,1.56e6,1.19e6,1.32e6
Bin1 (GeneID 41965),DRSC16843,1.18e6,1.25e6,1.12e6,1.29e6
ImpL1 (GeneID 39499),DRSC11197,1.36e6,1.39e6,1.66e6,1.11e6
ND-75 (GeneID 31762),DRSC18686,1.40e6,1.49e6,7.57e5,8.68e5
drm (GeneID 49638),DRSC00277,1.51e6,1.37e6,1.09e6,1.29e6
rtet (GeneID 42500),DRSC14160,1.66e6,1.63e6,1.34e6,1.35e6
